In PMC5410595, “In Vitro and In Silico Antidiabetic and Antimicrobial Evaluation of Constituents from Kickxia ramosissima (Nanorrhinum ramosissimum)” (Frontiers in Pharmacology, 2017) one finds IC50 data, which are given here for two compounds.

The test system of test [1] is Candida albicans, B59630 Janssen strain. Briefly: microbe, parasite or virus in culture. The following applies: read-out: IC50 Candida albicans. Here is the method: (§1) Fractions and isolated compounds were evaluated for antimicrobial activity in an integrated screening panel, also including the human MRC-5 cell line to assess selectivity, as reported before ([Cos et al., 2006]; [Mesia et al., 2008]; [Baldé et al., 2010]; [Amin et al., 2016]).

For test [2], the system named is MRC-5, human fetal lung fibroblasts. Nature of the test: cells. The note with it: MRC5, read-out: IC50 MRC-5. The procedure:
as §1

pIC50: −log10 of the molar value.

For `Clc1ccc(COC(Cn2ccnc2)c2ccc(Cl)cc2Cl)c(Cl)c1` (centres unmarked) [miconazole], the pIC50 in test [1] was 5.33.
On to `CC/C(=C(\c1ccccc1)c1ccc(OCCN(C)C)cc1)c1ccccc1` [Tamoxifen, reference compound], for which the negative-log IC50 (pIC50) in test [2] was 4.98.

What is called pIC50 is the negative decadic logarithm of the IC50, by convention in mol/L.
